Results deposited as PubChem BioAssay AID686937 (Drosophila RNAi Screening Center, 2013).

Purpose: 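Genes whose loss weakens secretory pathway function in fly cells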 (primary screen)
System: Drosophila S2 cells expressing secreted horseradish peroxidase
Reagent: long dsRNA against Drosophila genes
Time to read-out: about 5.5 days (5 days dsRNA, then 12 h reporter induction)
Treatment: reporter expression induced after 5 days of dsRNA, read 12 h later; inducer not stated
Read-out: 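Chemiluminescent measurement of peroxidase in the medium 12 h after reporter induction, following 5 days of dsRNA, given as a z-score per plate; higher means more secretion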
Direction: z-score: higher = more reporter secreted into medium
In all, the deposit lists about 23,000 reagents; this is an unselected part of those with a known target gene and a result. 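Reduced-secretion tags in replicate 1 do not always agree with the z-scores; no criterion for assigning the tags was given.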 Names joined by + are all predicted targets of the reagent. Not all columns of the deposit are shown. Reagent sequences are not shown. Not stated in the record: the amount of reagent.

Usp7 [DRSC18909]: z-score, replicate 1 = 0.26
Usp7 [DRSC19604]: z-score, replicate 1 = 0.38
CG11438 [DRSC11660]: z-score, replicate 1 = 0.35
gw [DRSC17135]: z-score, replicate 1 = -2.24
gw [DRSC17160]: z-score, replicate 1 = -1.78
Cpr65Ay [DRSC08796]: z-score, replicate 1 = 0.02
Crtp [DRSC04604]: z-score, replicate 1 = 0.47
CG7080 [DRSC16193]: z-score, replicate 1 = 0.43
CG5180 [DRSC15731]: z-score, replicate 1 = 0.14
smo [DRSC00837]: z-score, replicate 1 = 0.27
Fpgs1 [DRSC19857]: z-score, replicate 1 = 0.33

In a second layout: 2 of the entries above.
| gene | amplicon | z-score, replicate 1 |
| --- | --- | --- |
| Crtp | DRSC04604 | 0.47 |
| CG7080 | DRSC16193 | 0.43 |

The listing continues.
Ktl [DRSC14270]: z-score, replicate 1 = 0.25
eys [DRSC00113]: z-score, replicate 1 = -0.63
eys [DRSC00402]: z-score, replicate 1 = 0.12
eys [DRSC00403]: z-score, replicate 1 = 0.15
eys [DRSC00695]: z-score, replicate 1 = 0.33
Tim10 + CG42497 [DRSC04664]: z-score, replicate 1 = 0.35
CG2854 [DRSC18595]: z-score, replicate 1 = 0.42
Scsalpha1 [DRSC08698]: z-score, replicate 1 = 0.24
Nepl12 [DRSC16411]: z-score, replicate 1 = 0.12
CG32313 [DRSC21450]: z-score, replicate 1 = 0.58
Gr32a [DRSC02400]: z-score, replicate 1 = 0.28
H [DRSC16692]: z-score, replicate 1 = 0.38
CG13405 [DRSC08310]: z-score, replicate 1 = 0.21
CR12628 + Mgstl [DRSC03702]: z-score, replicate 1 = 0.3
CR12628 + Mgstl [DRSC20568]: z-score, replicate 1 = 0.46
Cpr78Cc [DRSC11846]: z-score, replicate 1 = 0.38
